Test results published in paper PMC4809424.
No constants are given. Whether binding was seen depends on the method and setting. Binding seen in cells or lysates may run through a third protein. Some binding calls cover weakened binding; strength is not graded here. For part of these data: Tags and fused reporters may be left off the sequences shown.

By UniProt entry, the sequences of proteins in these tests, tags left out.
UniProt Q14694: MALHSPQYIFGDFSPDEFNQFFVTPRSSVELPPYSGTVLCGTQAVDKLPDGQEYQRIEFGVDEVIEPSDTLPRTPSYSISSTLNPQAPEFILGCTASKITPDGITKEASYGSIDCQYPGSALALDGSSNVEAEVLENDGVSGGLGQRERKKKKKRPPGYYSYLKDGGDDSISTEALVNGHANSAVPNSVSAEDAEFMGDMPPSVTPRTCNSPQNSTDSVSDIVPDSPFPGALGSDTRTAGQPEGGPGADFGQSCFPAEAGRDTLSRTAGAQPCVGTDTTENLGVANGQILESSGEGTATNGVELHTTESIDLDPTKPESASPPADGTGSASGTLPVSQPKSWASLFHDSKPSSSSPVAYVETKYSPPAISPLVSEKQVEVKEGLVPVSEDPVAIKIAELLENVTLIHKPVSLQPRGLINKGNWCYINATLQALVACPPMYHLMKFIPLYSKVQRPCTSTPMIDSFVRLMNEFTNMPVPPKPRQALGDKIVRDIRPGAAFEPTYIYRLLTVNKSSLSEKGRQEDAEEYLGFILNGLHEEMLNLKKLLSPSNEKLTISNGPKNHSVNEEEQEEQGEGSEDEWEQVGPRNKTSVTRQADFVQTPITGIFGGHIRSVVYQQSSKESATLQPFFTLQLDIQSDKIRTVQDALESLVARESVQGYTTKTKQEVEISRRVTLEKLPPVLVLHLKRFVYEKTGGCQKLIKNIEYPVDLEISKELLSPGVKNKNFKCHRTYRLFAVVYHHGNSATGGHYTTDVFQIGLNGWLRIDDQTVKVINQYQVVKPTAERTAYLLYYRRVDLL
UniProt P14635: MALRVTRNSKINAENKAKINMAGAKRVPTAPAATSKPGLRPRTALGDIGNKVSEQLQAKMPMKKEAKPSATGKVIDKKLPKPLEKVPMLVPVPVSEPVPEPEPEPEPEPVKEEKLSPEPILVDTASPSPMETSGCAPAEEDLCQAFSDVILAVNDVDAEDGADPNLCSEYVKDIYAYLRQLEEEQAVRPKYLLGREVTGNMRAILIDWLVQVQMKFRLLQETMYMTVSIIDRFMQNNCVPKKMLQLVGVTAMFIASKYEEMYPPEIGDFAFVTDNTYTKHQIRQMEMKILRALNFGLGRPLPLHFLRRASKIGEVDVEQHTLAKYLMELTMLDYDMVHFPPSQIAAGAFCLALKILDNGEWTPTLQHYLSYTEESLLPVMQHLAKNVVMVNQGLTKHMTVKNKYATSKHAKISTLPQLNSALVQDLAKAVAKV
UniProt Q9BQ67: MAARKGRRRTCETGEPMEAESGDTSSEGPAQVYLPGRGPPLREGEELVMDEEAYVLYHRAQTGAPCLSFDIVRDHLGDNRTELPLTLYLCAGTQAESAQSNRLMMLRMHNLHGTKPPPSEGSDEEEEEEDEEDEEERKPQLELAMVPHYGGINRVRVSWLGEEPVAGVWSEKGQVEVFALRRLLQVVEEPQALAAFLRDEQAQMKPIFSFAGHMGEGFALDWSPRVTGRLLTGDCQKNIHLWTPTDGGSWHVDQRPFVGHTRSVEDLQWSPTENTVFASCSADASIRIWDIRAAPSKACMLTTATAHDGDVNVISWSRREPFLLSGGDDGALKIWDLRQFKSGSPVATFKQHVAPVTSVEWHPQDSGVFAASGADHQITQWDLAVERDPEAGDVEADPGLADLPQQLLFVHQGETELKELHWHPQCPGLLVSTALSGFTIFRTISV

Tests used:
[1] = target: T1, GST-USP22 fusion protein (UniProt Q9UPT9); experiment: pull-down; lysate of HCT116 cells transfected with Flag-tagged CCNB1 (48 h) incubated with GST-USP22 or GST-USP10 and GSH-Sepharose; retained proteins blotted; only the target purified
T1 sequence: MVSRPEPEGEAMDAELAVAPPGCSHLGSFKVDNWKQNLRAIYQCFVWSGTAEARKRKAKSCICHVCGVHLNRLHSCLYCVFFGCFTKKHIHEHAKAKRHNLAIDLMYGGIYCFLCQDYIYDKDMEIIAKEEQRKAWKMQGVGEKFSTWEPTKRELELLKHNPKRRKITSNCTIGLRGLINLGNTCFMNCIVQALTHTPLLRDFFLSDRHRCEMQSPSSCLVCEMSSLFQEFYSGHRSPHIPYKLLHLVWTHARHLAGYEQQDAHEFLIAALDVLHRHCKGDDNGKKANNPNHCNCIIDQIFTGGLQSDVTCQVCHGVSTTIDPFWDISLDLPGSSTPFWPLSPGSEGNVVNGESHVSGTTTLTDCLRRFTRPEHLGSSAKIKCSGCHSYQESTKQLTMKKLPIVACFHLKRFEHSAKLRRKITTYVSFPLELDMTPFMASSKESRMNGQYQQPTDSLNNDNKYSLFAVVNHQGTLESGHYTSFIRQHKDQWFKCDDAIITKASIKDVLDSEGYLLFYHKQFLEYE

[2] = target: GST-USP10 fusion protein (UniProt Q14694); experiment: as above
[3] = target: Flag-tagged CCNB1 (UniProt P14635); experiment: co-IP; transiently transfected HCT116 cells; RIPA lysis buffer with protease inhibitor; indicated antibody (1 ug/ml) and protein G-sepharose; immunoblotting; in Figure 5g cells with control or CDC20-specific siRNA

Substance	binding [1]	binding [2]	binding [3]
Flag-tagged CCNB1 (from UniProt P14635 1-433)	binds	no binding	–
GRWD1 (test in transiently transfected HCT116 cells) (from UniProt Q9BQ67 1-446)	–	–	no binding
